Measurements published in patent US11457628B2, “Substituted pyrimidine compound and preparation method and use thereof” (SHENYANG SINOCHEM AGROCHEMICALS R&D CO., LTD., priority 2017, dated 2022).
Where two headings read alike, the source gives them in different places. Some entries share one result that the patent states for a list of compounds.

Legend:
cucumber downy mildew = experiment: in vivo protective activity, pot determination, cucumber downy mildew
wheat powdery mildew = experiment: in vivo protective activity, pot determination, wheat powdery mildew
Tetranychus cinnabarinus = experiment: activity against Tetranychus cinnabarinus, airbrush spray method; details: after 72 hours
corn rust = experiment: in vivo protective activity, pot determination, corn rust
rice blast = format: cell-based; details: in vitro, 24 hours

Cn1nc(OCCNc2ncnc(C(F)F)c2Cl)cc1-c1ccc(Br)cc1 [Compound 12-34]
more than 80%: protective effect for cucumber downy mildew (cucumber downy mildew; dose 25 ppm) | protective effect for cucumber downy mildew (cucumber downy mildew; dose 100 ppm) | protective effect for cucumber downy mildew (cucumber downy mildew; dose 400 ppm) | protective effect for control of wheat powdery mildew (wheat powdery mildew; dose 400 ppm)

Cc1ncnc(NCCOc2cc(-c3ccc(Br)cc3)n(C)n2)c1Cl [Compound 10-34]
more than 80%: protective effect for cucumber downy mildew (cucumber downy mildew; dose 400 ppm)

CCc1ncnc(NCCOc2cc(-c3ccc(C(F)(F)F)cc3)n(C)n2)c1Cl [Compound 11-69]
more than 80%: protective effect for cucumber downy mildew (cucumber downy mildew; dose 400 ppm) | protective effect for control of wheat powdery mildew (wheat powdery mildew; dose 400 ppm)

Cn1nc(OCCNc2ncnc(C(F)F)c2Cl)cc1-c1ccccc1 [Compound 12-1]
more than 80%: protective effect for cucumber downy mildew (cucumber downy mildew; dose 400 ppm) | lethality for the Tetranychus cinnabarinus (Tetranychus cinnabarinus; dose 600 ppm)

CCc1ncnc(OCCOc2nn(C)c(-c3ccccc3)c2C)c1Cl [Compound 26-1-1]
more than 80%: protective effect for cucumber downy mildew (cucumber downy mildew; dose 6.25 ppm) | protective effect for cucumber downy mildew (cucumber downy mildew; dose 25 ppm) | protective effect for cucumber downy mildew (cucumber downy mildew; dose 100 ppm) | protective effect for cucumber downy mildew (cucumber downy mildew; dose 400 ppm)

Cn1nc(OCCNc2ncnc3ccccc23)cc1-c1ccc(Br)cc1 [Compound 19-34]
more than 80%: protective effect for cucumber downy mildew (cucumber downy mildew; dose 400 ppm) | protective effect for control of corn rust (corn rust; dose 400 ppm)

Cn1nc(OCCNc2ncnc(C(F)F)c2Cl)cc1-c1ccc(Cl)cc1Cl [Compound 12-21]
more than 80%: protective effect for cucumber downy mildew (cucumber downy mildew; dose 100 ppm) | protective effect for cucumber downy mildew (cucumber downy mildew; dose 400 ppm)

Cn1nc(OCCNc2ncnc(C(F)F)c2Cl)cc1-c1ccc(C(F)(F)F)cc1 [Compound 12-69]
more than 80%: protective effect for cucumber downy mildew (cucumber downy mildew; dose 400 ppm) | protective effect for control of wheat powdery mildew (wheat powdery mildew; dose 400 ppm)

Cc1c(OCC(C)Nc2ncnc3scc(Cl)c23)nn(C)c1-c1ccccc1 (centres unmarked) [Compound 21-4-1]
more than 80%: protective effect for cucumber downy mildew (cucumber downy mildew; dose 400 ppm) | protective effect for control of wheat powdery mildew (wheat powdery mildew; dose 400 ppm) | protective effect for control of corn rust (corn rust; dose 400 ppm)

Cc1ncnc(NCCOc2cc(-c3ccccc3)n(C)n2)c1Cl [Compound 10-1]
more than 80%: protective effect for cucumber downy mildew (cucumber downy mildew; dose 400 ppm)

Cn1nc(OCCNc2ncnc3ccccc23)cc1-c1ccc(Cl)cc1Cl [Compound 19-21]
more than 80%: protective effect for control of wheat powdery mildew (wheat powdery mildew; dose 400 ppm)

Cc1c(OCCNc2ncnc3scc(Cl)c23)nn(C)c1-c1ccc(F)cc1 [Compound 21-1-4]
more than 80%: protective effect for cucumber downy mildew (cucumber downy mildew; dose 400 ppm) | inhibition activity for rice blast (rice blast; dose 8.3 ppm) | inhibition activity for rice blast (rice blast; dose 25 ppm) | protective effect for control of corn rust (corn rust; dose 100 ppm) | protective effect for control of corn rust (corn rust; dose 400 ppm)

Cc1ncnc(NCCOc2cc(-c3ccc(C(F)(F)F)cc3)n(C)n2)c1Cl [Compound 10-69]
more than 80%: protective effect for cucumber downy mildew (cucumber downy mildew; dose 400 ppm)

Cc1ncnc(NCCOc2nn(C)c(-c3ccc(F)cc3)c2C)c1Cl [Compound 10-1-4]
more than 80%: protective effect for cucumber downy mildew (cucumber downy mildew; dose 6.25 ppm) | protective effect for cucumber downy mildew (cucumber downy mildew; dose 25 ppm) | protective effect for cucumber downy mildew (cucumber downy mildew; dose 100 ppm) | protective effect for cucumber downy mildew (cucumber downy mildew; dose 400 ppm) | protective effect for control of corn rust (corn rust; dose 100 ppm) | protective effect for control of corn rust (corn rust; dose 400 ppm)

Cc1c(OCCNc2ncnc3ccccc23)nn(C)c1-c1ccc(C(C)(C)C)cc1 [Compound 19-1-288]
more than 80%: protective effect for control of corn rust (corn rust; dose 100 ppm) | protective effect for control of corn rust (corn rust; dose 400 ppm)

Cc1c(OCCCNc2ncnc3scc(Cl)c23)nn(C)c1-c1ccccc1 [Compound 21-3-1]
more than 80%: protective effect for cucumber downy mildew (cucumber downy mildew; dose 400 ppm) | inhibition activity for rice blast (rice blast; dose 8.3 ppm) | inhibition activity for rice blast (rice blast; dose 25 ppm) | protective effect for control of wheat powdery mildew (wheat powdery mildew; dose 400 ppm) | protective effect for control of corn rust (corn rust; dose 400 ppm)

Cn1nc(OCCNc2ncnc3ccccc23)cc1-c1ccccc1 [Compound 19-1]
more than 80%: protective effect for cucumber downy mildew (cucumber downy mildew; dose 400 ppm)

Cc1ccc(-c2c(C)c(OCCNc3ncnc4scc(Cl)c34)nn2C)cc1 [Compound 21-1-57]
more than 80%: protective effect for cucumber downy mildew (cucumber downy mildew; dose 400 ppm) | lethality for the Tetranychus cinnabarinus (Tetranychus cinnabarinus; dose 10 ppm) | lethality for the Tetranychus cinnabarinus (Tetranychus cinnabarinus; dose 100 ppm) | lethality for the Tetranychus cinnabarinus (Tetranychus cinnabarinus; dose 600 ppm) | protective effect for control of corn rust (corn rust; dose 6.25 ppm) | protective effect for control of corn rust (corn rust; dose 25 ppm) | protective effect for control of corn rust (corn rust; dose 100 ppm) | protective effect for control of corn rust (corn rust; dose 400 ppm)

CCc1ncnc(NCCOc2cc(-c3ccc(Cl)cc3Cl)n(C)n2)c1Cl [Compound 11-21]
more than 80%: protective effect for cucumber downy mildew (cucumber downy mildew; dose 400 ppm) | lethality for the Tetranychus cinnabarinus (Tetranychus cinnabarinus; dose 600 ppm)

Cc1ncnc(NCCOc2nn(C)c(-c3ccc(Cl)cc3)c2C)c1Cl [Compound 10-1-19]
more than 80%: protective effect for cucumber downy mildew (cucumber downy mildew; dose 6.25 ppm) | protective effect for cucumber downy mildew (cucumber downy mildew; dose 25 ppm) | protective effect for cucumber downy mildew (cucumber downy mildew; dose 100 ppm) | protective effect for cucumber downy mildew (cucumber downy mildew; dose 400 ppm) | inhibition activity for rice blast (rice blast; dose 25 ppm) | protective effect for control of wheat powdery mildew (wheat powdery mildew; dose 25 ppm) | protective effect for control of wheat powdery mildew (wheat powdery mildew; dose 400 ppm) | protective effect for control of corn rust (corn rust; dose 100 ppm) | protective effect for control of corn rust (corn rust; dose 400 ppm)

Cc1ccc(-c2c(C)c(OCCNc3ncnc(C)c3Cl)nn2C)cc1 [Compound 10-1-57]
more than 80%: protective effect for cucumber downy mildew (cucumber downy mildew; dose 400 ppm) | protective effect for control of wheat powdery mildew (wheat powdery mildew; dose 400 ppm) | protective effect for control of corn rust (corn rust; dose 100 ppm) | protective effect for control of corn rust (corn rust; dose 400 ppm)

Cn1nc(OCCNc2ncnc3scc(Cl)c23)cc1-c1ccccc1 [Compound 21-1]
more than 80%: protective effect for cucumber downy mildew (cucumber downy mildew; dose 400 ppm) | lethality for the Tetranychus cinnabarinus (Tetranychus cinnabarinus; dose 600 ppm)

CCc1ncnc(NCCOc2nn(C)c(-c3ccc(C(C)(C)C)cc3)c2C)c1Cl [Compound 11-1-288]
more than 80%: protective effect for control of wheat powdery mildew (wheat powdery mildew; dose 400 ppm) | protective effect for control of corn rust (corn rust; dose 400 ppm)

Cc1c(OCC(C)Nc2ncnc3ccccc23)nn(C)c1-c1ccccc1 (centres unmarked) [Compound 19-4-1]
more than 80%: protective effect for cucumber downy mildew (cucumber downy mildew; dose 100 ppm) | protective effect for cucumber downy mildew (cucumber downy mildew; dose 400 ppm)

Cc1ncnc(NCCOc2cc(-c3ccc(Cl)cc3Cl)n(C)n2)c1Cl [Compound 10-21]
more than 80%: protective effect for cucumber downy mildew (cucumber downy mildew; dose 400 ppm)

Cc1c(OCCNc2ncnc(C(F)F)c2Cl)nn(C)c1-c1ccccc1 [Compound 12-1-1]
more than 80%: protective effect for cucumber downy mildew (cucumber downy mildew; dose 25 ppm) | protective effect for cucumber downy mildew (cucumber downy mildew; dose 100 ppm) | protective effect for cucumber downy mildew (cucumber downy mildew; dose 400 ppm) | lethality for the Tetranychus cinnabarinus (Tetranychus cinnabarinus; dose 100 ppm) | lethality for the Tetranychus cinnabarinus (Tetranychus cinnabarinus; dose 600 ppm) | inhibition activity for rice blast (rice blast; dose 25 ppm) | protective effect for control of corn rust (corn rust; dose 400 ppm)

Cn1nc(OCCNc2ncnc3scc(Cl)c23)cc1-c1ccc(Br)cc1 [Compound 21-34]
more than 80%: protective effect for cucumber downy mildew (cucumber downy mildew; dose 400 ppm) | lethality for the Tetranychus cinnabarinus (Tetranychus cinnabarinus; dose 600 ppm) | inhibition activity for rice blast (rice blast; dose 2.8 ppm) | inhibition activity for rice blast (rice blast; dose 8.3 ppm) | inhibition activity for rice blast (rice blast; dose 25 ppm)

Cc1c(OCCNc2ncnc(C(F)F)c2Cl)nn(C)c1-c1ccc(C(C)(C)C)cc1 [Compound 12-1-288]
more than 80%: protective effect for control of wheat powdery mildew (wheat powdery mildew; dose 400 ppm) | protective effect for control of corn rust (corn rust; dose 100 ppm) | protective effect for control of corn rust (corn rust; dose 400 ppm)
